Experimental data published in PubChem BioAssay AID266 (DTP/NCI, 2004).
The list is a part of this screen's results and no random one: it gathers tests that were run many times, whatever their T/C, doses with no T/C, and many T/C values between a quarter and a half above the control. Other doses and runs of a compound stand elsewhere. T/C: endpoint of the treated group in % of that of the vehicle group. Schedules are NCI's codes, read here as Q, the interval in days (D) or hours (H), X, the number of doses. Some T/C values carry the count of animals alive at the toxicity check (mostly the fifth day); where none is given, no animal had died by that day. Some doses have a count of surviving animals in place of a T/C: the source files T/C as zero there, which appears to mark a toxic dose or a test without result, not a measured value. Survivors were counted at the toxicity check, usually on the fifth day, unless a day is given; later deaths do not show.

Tested on: Nude mice, LX-1 lung xenograft intrarenal, tumor weight T/C
Experiment: NCI In Vivo Anticancer Drug Screen. Data for tumor model Human Lung LX-1 Xenograft (intrarenal inoculation) in NU/NU BALB/C (nude) mice
Conditions: T/C endpoint: mean tumor weight change, higher T/C = larger tumour; for T/C: evaluated on day 11
Description: The antitumor activity of compounds was measured in mice bearing transplantable tumors. Survival or tumor size were measured and the results are expressed as the measurement made in the treated group (T) divided by the measurement made in the vehicle treated control group (C). The tumor model used in this assay is Human Lung LX-1 Xenograft (intrarenal inoculation) in NU/NU BALB/C (nude) mice

[1] = dose: 400.0 mg/kg/injection, schedule: Q01DX010 (sc), vehicle: saline with Tween-80
[2] = dose: 1200.0 mg/kg/injection, schedule: Q04DX003 (sc), vehicle: Klucel (hydroxypropylcellulose) (HPC)
[3] = dose: 100.0 mg/kg/injection, schedule: Q01DX010 (sc), vehicle: saline with Tween-80
[4] = dose: 100.0 mg/kg/injection, schedule: Q01DX010 (sc), vehicle: saline
[5] = dose: 20.0 mg/kg/injection, schedule: Q01DX010 (sc), vehicle: saline
[6] = dose: 200.0 mg/kg/injection, schedule: Q01DX010 (sc), vehicle: saline
[7] = dose: 400.0 mg/kg/injection, schedule: Q01DX010 (sc), vehicle: Klucel (hydroxypropylcellulose) (HPC)
[8] = dose: 800.0 mg/kg/injection, schedule: Q01DX010 (sc), vehicle: Klucel (hydroxypropylcellulose) (HPC)
[9] = dose: 100.0 mg/kg/injection, schedule: Q01DX010 (sc), vehicle: Klucel (hydroxypropylcellulose) (HPC)
[10] = dose: 200.0 mg/kg/injection, schedule: Q01DX010 (sc), vehicle: Klucel (hydroxypropylcellulose) (HPC)

SMILES: CC(=O)NC(CCc1ccc(Cl)c(Cl)c1)c1cccc(O)c(=O)c1 (stereo not drawn)
- survivor count (dose: 400.0 mg/kg/injection, schedule: Q04DX003 (ip), vehicle: Klucel (hydroxypropylcellulose) (HPC)): 0 of 6 on day 11
- survivor count (dose: 800.0 mg/kg/injection, schedule: Q04DX003 (ip), vehicle: Klucel (hydroxypropylcellulose) (HPC)): 0 of 6 on day 11

SMILES: CN(C)c1nc(N(C)C)nc(N(C)C)n1
- T/C (dose: 50.0 mg/kg/injection, schedule: Q01DX010 (sc), vehicle: saline with Tween-80): 146 % of control [2 of 2 alive on day 11]
- survivor count (dose: 240.0 mg/kg/injection, schedule: Q01DX010 (sc), vehicle: saline with Tween-80): 1 of 3 on day 11
- survivor count [1]: 0 of 2 on day 11

SMILES: CCC1=C[C@H]2CN(CCc3c([nH]c4ccccc34)[C@@](C(=O)OC)(c3cc4c(cc3OC)N(C)[C@H]3[C@@](O)(C(=O)NC)[C@H](OC(C)=O)[C@]5(CC)C=CCN6CC[C@]43[C@@H]65)C2)C1
- survivor count (dose: 2.0 mg/kg/injection, schedule: Q04DX003 (sc), vehicle: water): 2 of 6 on day 11
- survivor count (dose: 4.0 mg/kg/injection, schedule: Q04DX003 (sc), vehicle: water): 0 of 6 on day 11
- survivor count (dose: 8.0 mg/kg/injection, schedule: Q04DX003 (sc), vehicle: water): 0 of 6 on day 11

SMILES: NCCCNCCSP(=O)(O)O
- survivor count (dose: 1600.0 mg/kg/injection, schedule: Q04DX003 (sc), vehicle: saline): 0 of 6 on day 11

SMILES: CN=NN(C)C(=O)NC
- survivor count (dose: 300.0 mg/kg/injection, schedule: Q04DX003 (ip), vehicle: saline): 0 of 6 on day 11
- survivor count (dose: 500.0 mg/kg/injection, schedule: Q04DX003 (ip), vehicle: saline): 0 of 6 on day 11

SMILES: Cn1cnc([N+](=O)[O-])c1[Se]c1nc(N)nc2nc[nH]c12
- survivor count (dose: 200.0 mg/kg/injection, schedule: Q01DX010 (sc), vehicle: water): 0 of 3 on day 11
- survivor count (dose: 400.0 mg/kg/injection, schedule: Q01DX010 (sc), vehicle: water): 0 of 3 on day 11

SMILES: COc1cccc2c1C(=O)c1c(O)c3c(c(O)c1C2=O)C[C@@](O)(/C(C)=N\O)C[C@@H]3OC1CC(N)C(O)C(C)O1 (stereo partly drawn)
- T/C (dose: 12.5 mg/kg/injection, schedule: Q04DX003 (sc), vehicle: saline): 137 % of control
- T/C (dose: 25.0 mg/kg/injection, schedule: Q04DX003 (sc), vehicle: saline): 130 % of control
- survivor count (dose: 200.0 mg/kg/injection, schedule: Q04DX003 (sc), vehicle: saline): 0 of 6 on day 11

SMILES: CCCNC1=C(C)C(=O)C2=C(C1=O)[C@H](COC(N)=O)[C@]1(OC)[C@@H]3N[C@@H]3CN21
- survivor count (dose: 36.0 mg/kg/injection, schedule: Q04DX003 (sc), vehicle: saline + alcohol): 0 of 6 on day 11
- survivor count (dose: 48.0 mg/kg/injection, schedule: Q04DX003 (sc), vehicle: saline + alcohol): 0 of 6 on day 11

SMILES: CS(C)=O
- T/C (dose: 1500.0 mg/kg/injection, schedule: Q01DX010 (sc), vehicle: saline): 127 % of control

SMILES: NC1=NC(=O)N2CC12 (stereo not drawn)
- survivor count (dose: 400.0 mg/kg/injection, schedule: Q04DX003 (sc), vehicle: saline): 2 of 6 on day 11

SMILES: O=C(CCCN1CCC(C(O)c2ccc(F)cc2)CC1)c1ccc(F)cc1 (stereo not drawn)
- survivor count (dose: 100.0 mg/kg/injection, schedule: Q04DX003 (ip), vehicle: saline with Tween-80): 3 of 6 on day 11

SMILES: Cc1cnc(/C=N\NC(N)=S)c2cccc(N)c12
- survivor count (dose: 250.0 mg/kg/injection, schedule: Q04DX003 (ip), vehicle: saline with Tween-80): 2 of 6 on day 11

SMILES: COC1=C(OC)C(=O)C(SC/C=C(\C)CCCC(C)CCCC(C)CCCC(C)C)=CC1=O (stereo not drawn)
- survivor count (dose: 2400.0 mg/kg/injection, schedule: Q04DX003 (ip), vehicle: saline with Tween-80): 0 of 6 on day 11

SMILES: NC(CCl)=NCC12CC3CC(CC(C3)C1)C2
- T/C (dose: 37.5 mg/kg/injection, schedule: Q04DX003 (sc), vehicle: Klucel (hydroxypropylcellulose) (HPC)): 135 % of control
- survivor count (dose: 150.0 mg/kg/injection, schedule: Q04DX003 (sc), vehicle: Klucel (hydroxypropylcellulose) (HPC)): 3 of 6 on day 11

SMILES: Cc1ccc(S(=O)(=O)NC(=O)C2C(=O)CC3(CCCCC3)CC2=O)cc1
- T/C [2]: 139 % of control

SMILES: CN(N=O)C(N)=O
- survivor count [3]: 0 of 3 on day 11

SMILES: NC(CNC(=O)CBr)C(=O)O (stereo not drawn)
- T/C (dose: 37.5 mg/kg/injection, schedule: Q04DX003 (sc), vehicle: water): 133 % of control [5 of 6 alive on day 11]
- survivor count (dose: 300.0 mg/kg/injection, schedule: Q04DX003 (sc), vehicle: water): 0 of 6 on day 11

SMILES: [N-]=[N+]=CC(=O)CCC(N)C(=O)O (stereo not drawn)
- survivor count (dose: 0.8 mg/kg/injection, schedule: Q01DX010 (sc), vehicle: saline): 0 of 2 on day 11
- survivor count (dose: 3.13 mg/kg/injection, schedule: Q01DX010 (sc), vehicle: saline): 0 of 2 on day 11
- survivor count (dose: 6.25 mg/kg/injection, schedule: Q01DX010 (sc), vehicle: saline): 0 of 2 on day 11
- survivor count (dose: 12.5 mg/kg/injection, schedule: Q01DX010 (sc), vehicle: saline): 0 of 2 on day 11
- survivor count (dose: 25.0 mg/kg/injection, schedule: Q01DX010 (sc), vehicle: saline): 0 of 2 on day 11
- survivor count (dose: 50.0 mg/kg/injection, schedule: Q01DX010 (sc), vehicle: saline): 0 of 2 on day 11
- survivor count [4]: 0 of 2 on day 11

SMILES: Cc1nc(N)nc(N)c1-c1ccc(Cl)c(Cl)c1
- survivor count (dose: 2.5 mg/kg/injection, schedule: Q01DX010 (sc), vehicle: saline): 0 of 3 on day 11
- survivor count (dose: 5.0 mg/kg/injection, schedule: Q01DX010 (sc), vehicle: saline): 0 of 3 on day 11
- survivor count (dose: 10.0 mg/kg/injection, schedule: Q01DX010 (sc), vehicle: saline): 0 of 3 on day 11
- survivor count [5]: 0 of 2 on day 11

SMILES: COC1N(C2CC(O)C(CO)O2)C(=O)NC(=O)C1(F)Br (stereo not drawn)
- survivor count [6]: 0 of 3 on day 11

SMILES: O=S(=O)(N=N/C=C1\C=CC=CN1O)c1cccs1
- survivor count (dose: 300.0 mg/kg/injection, schedule: Q04DX003 (sc), vehicle: saline with Tween-80): 3 of 5 on day 11

SMILES: COc1ccc2c(ccc3oc([N+](=O)[O-])cc32)c1
- T/C [2]: 127 % of control

SMILES: Nc1cc2[nH]cnc2c(=O)[nH]1
- survivor count [4]: 1 of 3 on day 11
- survivor count [6]: 0 of 3 on day 11

SMILES: CN(C)/N=N/c1nc[nH]c1C(N)=O
- survivor count [7]: 1 of 3 on day 11
- survivor count [8]: 0 of 3 on day 11

SMILES: CC(=O)C(O)N1C(=O)C=CC1=O (stereo not drawn)
- survivor count [5]: 0 of 3 on day 11

SMILES: CC1=C(/C=C/C(C)=C/C=C/C(C)=C/C(=O)O)C(C)(C)CCC1
- survivor count [3]: 1 of 3 on day 11
- survivor count (dose: 200.0 mg/kg/injection, schedule: Q01DX010 (sc), vehicle: saline with Tween-80): 0 of 3 on day 11
- survivor count [1]: 0 of 3 on day 11

SMILES: O=C(NO)c1ccccc1
- survivor count [7]: 1 of 3 on day 11
- survivor count [8]: 0 of 3 on day 11

SMILES: Nc1nncs1
- survivor count [9]: 0 of 3 on day 11
- survivor count [10]: 0 of 3 on day 11
- survivor count [7]: 0 of 3 on day 11
- survivor count [8]: 0 of 3 on day 11

SMILES: O=CC(S)CO (stereo not drawn)
- survivor count (dose: 800.0 mg/kg/injection, schedule: Q04DX003 (sc), vehicle: suspension in saline): 3 of 6 on day 11

SMILES: C=C1C(=O)OCC2C(C(=O)O)=CC3C(C)C(C)=CC123 (stereo not drawn)
- survivor count (dose: 50.0 mg/kg/injection, schedule: Q01DX010 (sc), vehicle: Klucel (hydroxypropylcellulose) (HPC)): 0 of 3 on day 11
- survivor count [9]: 0 of 3 on day 11
- survivor count [10]: 0 of 3 on day 11
- survivor count [7]: 0 of 3 on day 11

SMILES: CCOC1=Cc2c(oc3c(C(C)(C)C)cc(OCC)cc23)OC(C(C)(C)C)=C1
- T/C (dose: 75.0 mg/kg/injection, schedule: Q04DX003 (sc), vehicle: saline with Tween-80): 142 % of control
